Data from publication PMC2366074.

By UniProt entry, the sequences of proteins in these tests, tags left out.
UniProt P51532: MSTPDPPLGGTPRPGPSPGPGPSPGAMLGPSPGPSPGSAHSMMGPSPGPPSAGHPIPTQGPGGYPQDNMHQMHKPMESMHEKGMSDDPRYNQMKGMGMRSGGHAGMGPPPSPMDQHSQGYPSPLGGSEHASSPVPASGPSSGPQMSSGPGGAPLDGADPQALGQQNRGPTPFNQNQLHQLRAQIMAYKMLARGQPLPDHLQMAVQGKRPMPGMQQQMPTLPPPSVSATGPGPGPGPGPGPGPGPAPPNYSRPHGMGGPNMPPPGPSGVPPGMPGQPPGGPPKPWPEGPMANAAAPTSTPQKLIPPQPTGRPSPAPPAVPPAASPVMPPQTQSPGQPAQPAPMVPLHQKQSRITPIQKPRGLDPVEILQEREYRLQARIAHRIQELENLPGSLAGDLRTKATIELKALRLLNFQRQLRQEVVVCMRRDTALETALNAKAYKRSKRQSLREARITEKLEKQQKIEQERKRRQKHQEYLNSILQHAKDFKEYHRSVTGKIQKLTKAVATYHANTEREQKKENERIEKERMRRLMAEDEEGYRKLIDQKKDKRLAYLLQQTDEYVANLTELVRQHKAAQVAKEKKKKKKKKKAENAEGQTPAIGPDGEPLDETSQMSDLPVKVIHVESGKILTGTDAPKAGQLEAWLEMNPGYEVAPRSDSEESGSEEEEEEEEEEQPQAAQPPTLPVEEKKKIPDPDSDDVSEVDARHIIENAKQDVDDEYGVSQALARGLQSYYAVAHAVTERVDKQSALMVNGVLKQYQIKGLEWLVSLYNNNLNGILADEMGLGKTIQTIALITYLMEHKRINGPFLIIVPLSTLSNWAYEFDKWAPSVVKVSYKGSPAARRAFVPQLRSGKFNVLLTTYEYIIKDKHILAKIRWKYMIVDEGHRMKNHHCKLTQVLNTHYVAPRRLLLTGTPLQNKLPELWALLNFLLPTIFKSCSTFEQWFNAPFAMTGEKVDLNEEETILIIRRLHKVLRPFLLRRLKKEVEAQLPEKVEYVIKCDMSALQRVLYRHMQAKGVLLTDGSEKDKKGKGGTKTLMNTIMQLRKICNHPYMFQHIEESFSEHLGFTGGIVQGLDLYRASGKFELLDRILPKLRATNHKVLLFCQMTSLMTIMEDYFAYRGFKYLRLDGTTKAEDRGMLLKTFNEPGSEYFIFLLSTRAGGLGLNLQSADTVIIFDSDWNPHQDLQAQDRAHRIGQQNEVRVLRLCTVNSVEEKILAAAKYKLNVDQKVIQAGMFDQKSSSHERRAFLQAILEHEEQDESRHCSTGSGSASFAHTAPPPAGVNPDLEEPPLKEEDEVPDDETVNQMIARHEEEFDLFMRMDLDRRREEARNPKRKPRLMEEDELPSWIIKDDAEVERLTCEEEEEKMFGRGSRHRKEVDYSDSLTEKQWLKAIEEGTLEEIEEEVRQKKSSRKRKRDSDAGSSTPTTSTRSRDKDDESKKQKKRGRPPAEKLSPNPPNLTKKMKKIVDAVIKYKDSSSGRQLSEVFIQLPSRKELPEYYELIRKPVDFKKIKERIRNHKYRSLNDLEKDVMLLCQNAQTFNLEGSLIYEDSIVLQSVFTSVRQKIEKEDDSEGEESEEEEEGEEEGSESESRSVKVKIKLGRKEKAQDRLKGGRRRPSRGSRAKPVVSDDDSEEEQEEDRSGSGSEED
UniProt Q8TAQ2: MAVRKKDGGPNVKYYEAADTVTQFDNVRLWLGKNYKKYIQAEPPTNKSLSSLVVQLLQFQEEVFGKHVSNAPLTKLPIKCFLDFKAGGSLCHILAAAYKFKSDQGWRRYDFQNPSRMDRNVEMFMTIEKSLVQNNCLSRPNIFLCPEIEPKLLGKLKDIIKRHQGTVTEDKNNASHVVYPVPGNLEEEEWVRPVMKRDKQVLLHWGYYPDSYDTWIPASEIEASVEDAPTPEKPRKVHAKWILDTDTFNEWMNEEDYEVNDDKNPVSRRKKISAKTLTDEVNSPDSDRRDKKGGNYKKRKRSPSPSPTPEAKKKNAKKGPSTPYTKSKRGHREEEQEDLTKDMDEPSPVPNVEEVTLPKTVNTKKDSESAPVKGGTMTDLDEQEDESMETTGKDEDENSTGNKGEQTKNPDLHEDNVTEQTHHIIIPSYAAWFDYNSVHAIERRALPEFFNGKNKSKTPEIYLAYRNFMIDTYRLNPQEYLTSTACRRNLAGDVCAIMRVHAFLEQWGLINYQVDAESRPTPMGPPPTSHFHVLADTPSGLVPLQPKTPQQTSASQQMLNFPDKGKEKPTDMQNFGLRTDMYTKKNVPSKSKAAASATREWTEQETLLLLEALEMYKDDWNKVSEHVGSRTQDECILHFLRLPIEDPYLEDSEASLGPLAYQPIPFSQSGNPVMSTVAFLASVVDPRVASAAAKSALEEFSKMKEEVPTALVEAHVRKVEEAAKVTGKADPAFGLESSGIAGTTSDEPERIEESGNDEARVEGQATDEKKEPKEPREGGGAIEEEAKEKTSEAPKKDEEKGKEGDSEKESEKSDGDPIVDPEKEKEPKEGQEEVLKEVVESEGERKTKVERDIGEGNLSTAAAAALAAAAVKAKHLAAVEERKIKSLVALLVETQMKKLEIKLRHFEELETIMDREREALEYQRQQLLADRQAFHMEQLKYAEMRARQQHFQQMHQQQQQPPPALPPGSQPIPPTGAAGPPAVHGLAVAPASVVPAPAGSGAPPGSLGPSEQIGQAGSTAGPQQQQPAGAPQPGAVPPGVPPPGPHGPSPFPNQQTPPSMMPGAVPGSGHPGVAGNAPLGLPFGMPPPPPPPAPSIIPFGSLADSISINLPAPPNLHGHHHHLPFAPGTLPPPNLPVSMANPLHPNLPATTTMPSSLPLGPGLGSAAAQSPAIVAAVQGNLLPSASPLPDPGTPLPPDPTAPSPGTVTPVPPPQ

Biological target: T1, Recombinant green fluorescent protein (GFP)-ADNP (UniProt Q9H2P0)
T1 sequence: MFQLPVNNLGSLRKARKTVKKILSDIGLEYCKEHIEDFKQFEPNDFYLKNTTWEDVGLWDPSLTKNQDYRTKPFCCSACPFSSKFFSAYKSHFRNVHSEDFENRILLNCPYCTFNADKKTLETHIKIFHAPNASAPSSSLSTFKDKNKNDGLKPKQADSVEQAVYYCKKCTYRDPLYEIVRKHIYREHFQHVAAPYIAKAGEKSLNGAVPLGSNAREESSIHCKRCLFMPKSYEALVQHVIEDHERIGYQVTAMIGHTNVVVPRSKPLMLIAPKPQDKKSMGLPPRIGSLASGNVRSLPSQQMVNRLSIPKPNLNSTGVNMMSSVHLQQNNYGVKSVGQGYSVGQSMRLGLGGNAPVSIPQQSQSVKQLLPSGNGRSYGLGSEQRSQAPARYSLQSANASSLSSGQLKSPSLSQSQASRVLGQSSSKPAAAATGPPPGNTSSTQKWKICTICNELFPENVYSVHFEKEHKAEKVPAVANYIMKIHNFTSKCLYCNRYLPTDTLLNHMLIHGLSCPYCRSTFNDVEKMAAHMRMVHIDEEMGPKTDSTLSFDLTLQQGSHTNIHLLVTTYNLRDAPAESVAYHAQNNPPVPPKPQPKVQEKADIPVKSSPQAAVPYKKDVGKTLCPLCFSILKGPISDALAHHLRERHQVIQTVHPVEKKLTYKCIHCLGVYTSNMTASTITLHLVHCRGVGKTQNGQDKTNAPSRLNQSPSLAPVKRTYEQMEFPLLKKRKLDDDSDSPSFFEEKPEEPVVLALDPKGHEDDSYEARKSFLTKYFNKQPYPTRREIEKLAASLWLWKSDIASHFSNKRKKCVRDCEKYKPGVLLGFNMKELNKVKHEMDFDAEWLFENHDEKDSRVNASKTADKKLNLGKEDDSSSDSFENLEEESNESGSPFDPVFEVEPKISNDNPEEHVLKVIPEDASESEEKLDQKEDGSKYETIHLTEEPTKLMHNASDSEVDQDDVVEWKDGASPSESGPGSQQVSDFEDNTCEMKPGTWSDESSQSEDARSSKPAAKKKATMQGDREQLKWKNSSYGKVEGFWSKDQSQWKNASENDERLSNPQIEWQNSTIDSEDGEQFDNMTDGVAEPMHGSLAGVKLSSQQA
Test: affinity purification with mass spectrom

## BRG1 (from UniProt P51532 1-1647)
  binding: binds

## BAF170 (from UniProt Q8TAQ2 1-1214)
  binding: binds

Results are given in words; binding and its absence hold for the method and conditions named. Binding seen in cells or lysates may run through a third protein. These calls come from enrichment with a bait or labelling near it, and not all partners need be listed. Sequences can lack the tags named with a protein.
